Source: PMC7930037
These are yes or no findings as the source states them, for the method shown. Binding seen in cells or lysates may run through a third protein. For some assays here: Binding calls can cover weak binding; strength is not graded here. Sequences can lack the tags named with a protein.

How the values were obtained:
[1] = molecular target: GST-AMPKα; experiment: pull-down; GST fusion from E. coli extract on glutathione-Sepharose 4B beads (2 h, 4 °C), incubated with purified Flag-tagged protein; eluted with 20 mM reduced glutathione; anti-Flag blot; purified GST as control; both purified
[2] = molecular target: GST-AMPKβ1; experiment: as above

B1: Flag-tagged WBP2 (protein, UniProt Q969T9 1-261)
chain: MALNKNHSEGGGVIVNNTESILMSYDHVELTFNDMKNVPEAFKGTKKGTVYLTPYRVIFLSKGKDAMQSFMMPFYLMKDCEIKQPVFGANYIKGTVKAEAGGGWEGSASYKLTFTAGGAIEFGQRMLQVASQASRGEVPSGAYGYSYMPSGAYVYPPPVANGMYPCPPGYPYPPPPPEFYPGPPMMDGAMGYVQPPPPPYPGPMEPPVSGPDVPSTPAAEAKAAEAAASAYYNPGNPHNVYMPTSQPPPPPYYPPEDKKTQ
With B1 the binding [1] was “no binding” and the binding [2] was “binds”.
